Measurements: the supplement of paper PMC8256030
“And” between values parts separate entries of the source, which are not always exact repeats. Equal entries are not always repeated. The list shows a part of the results. This data set is noisy: repeats of one test often differ as much as different tests do.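 HEK293T cells were given each compound shortly before transfection with a reporter in which red mCherry is followed by the SARS-CoV-2 frameshift element and then GFP in the −1 frame, so GFP appears only after frameshifting.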

Key:
HEK293T = experiment: percent viability (nuclei count) relative to control; higher = more viable cells; details: 10 µM; 24 h
[1] = test system: SARS-CoV-2 -1 PRF reporter mCherry-FSE-GFP(-1); experiment: mCherry (red) intensity as percent of control; higher = higher upstream reporter expression; details: 10 µM; 24 h; HEK293T
[2] = test system: SARS-CoV-2 -1 PRF reporter mCherry-FSE-GFP(-1); experiment: percent effect, decrease of GFP/mCherry ratio (-1 PRF reporter) relative to controls; higher = stronger frameshift inhibition; details: 10 µM; 24 h; HEK293T

Structure (SMILES) | percent viability (HEK293T) | mCherry [1] | percent effect [2]
COC(C)(C)CCCC(C)C/C=C/C(C)=C/C(=O)OC(C)C (stereo unspecified) | 426% | 103% | -0.597%
CN1C(=O)CCS(=O)(=O)C1c1ccc(Cl)cc1 (stereo unspecified) [chlormezanone] | 132% | 98% | -10.7%
CCNC1(c2cccs2)CCCCC1=O (stereo unspecified) [tiletamine] | 42.1% | 74.9% | -0.575%
O=C1CN=C(c2ccccc2)c2cc(Cl)ccc2N1 [nordazepam] | 288% | 91.5% | -1.52%
CC(C)NCC(O)c1ccc(N)c(C#N)c1 (stereo unspecified) [cimaterol] | 189% | 88.2% | 0.634%
CN(C)[C@@H]1C(=O)C(C(N)=O)=C(O)[C@@]2(O)C(=O)C3=C(O)c4c(O)cccc4[C@@](C)(O)[C@H]3C[C@@H]12 [Tetracycline] | 211% and 100% | 85.6% and 63.4% | -7.75% and 0.79%
C[C@@H]1CC2=CC(=O)CC[C@@H]2[C@H]2CC[C@@]3(C)[C@@H](CC[C@]3(C)O)[C@@H]21 [mibolerone] | 108% | 78.4% | -10.7%
Cc1ncc2n1-c1ccc(Cl)cc1C(c1ccccc1F)=NC2 [midazolam] | 110% | 93.8% | -3.02%
O=C([O-])Cc1ccccc1.[Na+] [Sodium Phenylacetate] | 107% | 78.8% | -5.77%
CN(C)C(=O)Oc1ccc[n+](C)c1 [pyridostigmine bromide] | 177% | 124% | 3.54%
O=c1cccc2n1C[C@@H]1CNC[C@H]2C1 [Cytisine] | 234% | 92.2% | -0.000937%
C=CCN1CC[C@]23CCCC[C@H]2[C@H]1Cc1ccc(O)cc13 [Levallorphan] | 305% | 92.8% | -6.62%
CCOC(=O)C1(c2ccccc2)CCN(C)CC1 [pethidine] | 245% | 76.3% | -1.47%
CC(=O)OC1CN2CCC1CC2 (stereo unspecified) [aceclidine] | 40.4% | 87.6% | -1.88%
NC1=NC(=O)N2CC12 (stereo unspecified) | 302% | 123% | -3.98%
CCCN1C[C@H](CSC)C[C@@H]2c3cccc4[nH]cc(c34)C[C@H]21 [pergolide] | 200% and 252% | 95.6% and 111% | -1.36% and -5.49%
Oc1ccc(Cl)cc1 | 149% | 121% | -2.55%
CCC(COC(=O)c1cc(OC)c(OC)c(OC)c1)(c1ccccc1)N(C)C (stereo unspecified) | 131% | 95.2% | -4.43%
CC(CCc1ccccc1)NC(C)C(O)c1ccc(O)cc1 (stereo unspecified) [buphenine] | 259% and 190% | 95.1% and 80.4% | -4.4% and 0.55%
Cc1ccccc1-n1c(CF)nc2ccc(N)cc2c1=O [afloqualone] | 176% | 91.1% | 1.09%
C[C@H]1[C@H]2Cc3ccc(O)cc3[C@]1(C)CCN2CC1CC1 [cyclazocine] | 32.4% | 169% | -3.55%
CNC(=O)Oc1ccccc1OC(C)C | 313% | 105% | -1.42%

One compound at a time, as listed above:
Cc1ccccc1-n1c(CF)nc2ccc(N)cc2c1=O [afloqualone] is listed as percent viability (HEK293T): 176%; mCherry [1]: 91.1%; percent effect [2]: 1.09%
O=C1CN=C(c2ccccc2)c2cc(Cl)ccc2N1 [nordazepam] is listed as percent viability (HEK293T): 288%; mCherry [1]: 91.5%; percent effect [2]: -1.52%
